# Source: the supplement of paper PMC8256030
# “And” between values parts separate entries of the source, which are not always exact repeats. Equal entries are not always repeated. Some of the results follow. This data set is noisy: repeats of one test often differ as much as different tests do.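 HEK293T cells were given each compound shortly before transfection with a reporter in which red mCherry is followed by the SARS-CoV-2 frameshift element and then GFP in the −1 frame, so GFP appears only after frameshifting.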
# Tested on: HEK293T
# Assay: percent viability (nuclei count) relative to control; higher = more viable cells
# Conditions: 10 µM; 24 h
row,SMILES,percent viability
1,C[C@@H]1CCO[C@H]2Cn3cc(C(=O)NCc4ccc(F)cc4F)c(=O)c(O)c3C(=O)N12 [Dolutegravir],91.1%
2,Cc1ccccc1OCC(O)CNCCOc1ccc(C(N)=O)cc1 (stereo not given) [tolamolol],118%
3,CC(=O)O[C@H]1C[C@H](O[C@H]2[C@@H](O)C[C@H](O[C@H]3[C@@H](O)C[C@H](O[C@H]4CC[C@@]5(C)[C@H](CC[C@@H]6[C@@H]5CC[C@]5(C)[C@@H](C7=CC(=O)OC7)CC[C@]65O)C4)O[C@@H]3C)O[C@@H]2C)O[C@H](C)[C@H]1O [acetyldigitoxin],15.4%
4,CC(C)(O)c1ccccc1CC[C@@H](SCC1(CC(=O)O)CC1)c1cccc(/C=C/c2ccc3ccc(Cl)cc3n2)c1,165%
5,COC(=O)C1=C(C)NC(C)=C(C(=O)OCCCN2CCC(c3ccccc3)(c3ccccc3)CC2)C1c1cccc([N+](=O)[O-])c1 (stereo not given) [dexniguldipine  iguldipine],278%
6,CCCN(CCC)CCc1cccc2c1CC(=O)N2,316%
7,CCC(=O)N[C@H]1CC[C@@H](C(=O)N(C)c2ccc(-c3nc4ccccc4o3)cc2)C1,413%
8,NS(=O)(=O)c1cc2c(cc1Cl)NC(C(Cl)Cl)NS2(=O)=O (stereo not given) [trichlormethiazide],107% and 261%
9,CCN(CC)CCOC(=O)C(c1ccccc1)c1ccccc1,435%
10,CN(C)C(=N)NC(=N)N [metformin],208%
11,OCc1ccccc1O,162%
12,CN1CCCCC1CCN1c2ccccc2Sc2ccc([S+](C)[O-])cc21 (stereo not given),379%
13,O=C(O)CN1CCN(CC(=O)O)CCN(CC(=O)O)CCN(CC(=O)O)CC1 [tetraxetan],101%
14,O=C([O-])c1ccccc1[O-].[Bi+3].[OH-],94.1%
15,C[C@](N)(Cc1ccc(O)cc1)C(=O)O [metirosine],195%
16,Cc1cnc(NC(=O)C2=C(O)c3ccccc3S(=O)(=O)N2C)s1,360%
17,Cc1ncc([N+](=O)[O-])n1C,339%
18,COc1cc(NS(=O)(=O)c2ccc(N)cc2)nc(OC)n1 [sulfadimethoxine],86% and 220%
19,CO/N=C(\C(=O)N[C@@H]1C(=O)N2C(C(=O)O)=CCS[C@H]12)c1csc(N)n1 [Cefizox],195%
20,CN(C)CCC=C1c2ccccc2CCc2ccccc21 [amitriptyline],353% and 316%

# Retrieved by structure from the list above:
row,SMILES,percent viability
8,NS(=O)(=O)c1cc2c(cc1Cl)NC(C(Cl)Cl)NS2(=O)=O (stereo not given) [trichlormethiazide],107% and 261%
11,OCc1ccccc1O,162%

# The listing continues:

row,SMILES,percent viability
1,CCOc1ccc2nc(S(N)(=O)=O)sc2c1,242%
2,N[C@@H]1CONC1=O [cycloserine],161%
3,COc1cc(NCCCCCNC(C)C)c2ncccc2c1 [pentaquine],154%
4,COC(=O)[C@H]1[C@H]2C[C@@H]3c4[nH]c5ccccc5c4CCN3C[C@H]2C[C@@H](OC(=O)c2cc(OC)c(OC)c(OC)c2)[C@@H]1OC [deserpidine],101%
5,NC(=O)NCCN1CCN(c2cccc(C(F)(F)F)c2)CC1 [fluprazine],239%
6,CCCc1cc(=O)[nH]c(=S)[nH]1 [propylthiouracil],40.2%
7,NCCCC[C@H](NC(=O)[C@@H](Cc1cc(Br)c(O)c(Br)c1)NC(=O)N1CCC(N2Cc3ccccc3NC2=O)CC1)C(=O)N1CCN(c2ccncc2)CC1 [olcegepant],202%
8,CCCCc1ncc(/C=C(\Cc2cccs2)C(=O)O)n1Cc1ccc(C(=O)O)cc1 [eprosartan],300% and 247%
9,CN1CCN(C2=Nc3cc(Cl)ccc3Nc3ccccc32)CC1,136%
10,COc1cc2c(c(OC)c1OC)-c1c(cc3c(c1OC)OCO3)C[C@H](C)[C@@](C)(O)C2 [besigomsin],232%
11,O=C(NN1CCCCCC1)NS(=O)(=O)c1ccc(Cl)cc1 [glypinamide],166%
12,C/C(=C\C(=O)OCCCCCCCCC(=O)O)C[C@@H]1OC[C@H](C[C@@H]2O[C@H]2[C@@H](C)[C@H](C)O)[C@@H](O)[C@H]1O [mupirocin],140% and 269%
13,CCCNC(C)(C)COC(=O)c1ccccc1,322%
14,O=C(O)c1cc(/N=N/c2ccc(S(=O)(=O)Nc3ccccn3)cc2)ccc1O [Sulfasalazine],231%
15,Cc1cccc(OCC(O)CNC(C)C)c1 (stereo not given) [toliprolol],222%
16,CO[C@H]1/C=C/O[C@@]2(C)Oc3c(C)c(O)c4c(O)c(c(/C=N/N5CCN(C)CC5)c(O)c4c3C2=O)NC(=O)/C(C)=C\C=C\[C@H](C)[C@H](O)[C@@H](C)[C@@H](O)[C@@H](C)[C@H](OC(C)=O)[C@@H]1C [Rifadin],189%
17,C[C@H](N[C@@H](CCc1ccccc1)C(=O)O)C(=O)N1C(=O)N(C)C[C@H]1C(=O)O [imidaprilat],95.1%
18,CC(C)c1ccc2oc3nc(N)c(C(=O)O)cc3c(=O)c2c1 [amlexanox],302%
19,CC(C)(C)NCC(O)COc1cccc2c1CCC(=O)N2 (stereo not given) [carteolol],243%
20,CC(C)OC(=O)CCC/C=C\C[C@@H]1[C@@H](/C=C/C(F)(F)COc2ccccc2)[C@H](O)C[C@@H]1O [tafluprost],94.7%
